According to PubChem BioAssay (EPA / NIEHS):
This list was built around the results that the source calls inconclusive (neither active nor inactive); the mix of calls is not that of the screen. A potency beside an inconclusive call is a rough fit, not a confirmed value. The source made the active and inactive calls. Rule for the calls: active = hit-call score of the fitted dose curve at least 0.9, where 1 is the maximum; inconclusive = response in the unintended direction; inactive = score below 0.9.

Experiment: CCTE_Mundy_HCI_Cortical_NOG_NeuronCount: CCTE's Neurite Outgrowth Assay in rat cortical cells for Neuron Count, Mundy Lab (AID 2284236);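 note: neurons counted by imaging betaIII-tubulin and Hoechst stained cortical cells; cells exposed to compound for about 48 hours before fixation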
How it was run: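 Read-out: neuron number by high-content imaging of betaIII-tubulin (Alexa Fluor-488) and Hoechst-labelled rat primary cortical cells.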

Row | Compound | AC50 | outcome
1 | CCOP(=S)(OCC)SCS(=O)C(C)(C)C (stereo unspecified) | inconclusive: 0.303 nM | –
2 | [CH3][Sn]([CH3])[CH3] | – | inactive
3 | CC1(C)[C@@H](C=C(Cl)Cl)[C@@H]1C(=O)O[C@@H](C#N)c1ccc(F)c(Oc2ccccc2)c1 | – | inactive
4 | CC(=O)[O-].CC(=O)[O-].O.O.O.[Pb+2] | – | inactive
5 | C[n+]1ccc(-c2cc[n+](C)cc2)cc1 | inconclusive: 1.74 nM | –
6 | CC(=O)[O-].[Tl+] | active: 50000 nM | –
7 | C#CCN(C)[C@H](C)Cc1ccccc1 | inconclusive: 1.17 nM | –
8 | O=C(O)CNCP(=O)(O)O | – | inactive

Experiment: CCTE_Mundy_HCI_hNP1_CellTiter: CCTE's Cell Titer-Glo 2 Assay in human neuroprogenitor cells for Viability, Mundy Lab (AID 2284241);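 for AC50: a hit is a drop in ATP luminescence versus DMSO meaning reduced viability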
How it was run: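 Viability read as luminescent ATP content (CellTiter-Glo, 30 min room temperature) twenty-four hours after dosing, relative to DMSO. Cells: WA09-derived hNP1 neuroprogenitors on poly-L-ornithine/laminin, plated 40 to 44 hours before chemical.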

Row | Compound | outcome | AC50
9 | CCOP(=S)(OCC)SCS(=O)C(C)(C)C (stereo unspecified) | inactive | –
10 | CC1(C)C(C=C(Cl)c2ccc(Cl)cc2)C1C(=O)OC(C#N)c1ccc(F)c(Oc2ccccc2)c1 (stereo unspecified) | – | inconclusive: 50000 nM
11 | CCOP(=O)(OCC)OC(Cl)C(Cl)(Cl)Cl (stereo unspecified) | – | inconclusive: 11300 nM
12 | CC(=O)[O-].[Tl+] | – | inconclusive: 50000 nM
13 | CCOP(=O)(OCC)SCSCC | – | inconclusive: 4.15 nM
14 | COP(=O)(OC)SCN1C(=O)c2ccccc2C1=O | – | inconclusive: 10000 nM

Experiment: CCTE_Mundy_HCI_Cortical_Synap_Neur_Matur_NeuronCount: CCTE's Synaptogenesis and Neurite Maturation Assay in rat cortical cells for Neuron Count, Mundy Lab (AID 2284242);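 for AC50: hits reduce neuron count versus DMSO baseline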
How it was run: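 Neuron counts come from automated high-content imaging of Hoechst nuclei and MAP2/synaptophysin immunostaining at DIV 12, with loss of signal judged against DMSO. Cultures of rat cortical cells had glial growth arrested by AraC at DIV 5; chemical exposure began DIV 7.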

Row | Compound | AC50 | outcome
15 | CCOP(=S)(OCC)SCS(=O)C(C)(C)C (stereo unspecified) | inconclusive: 2.97 nM | –
16 | [CH3][Sn]([CH3])[CH3] | active: 1670 nM | –
17 | CC1(C)C(C=C(Cl)c2ccc(Cl)cc2)C1C(=O)OC(C#N)c1ccc(F)c(Oc2ccccc2)c1 (stereo unspecified) | – | inactive
18 | CC1(C)[C@@H](C=C(Cl)Cl)[C@@H]1C(=O)O[C@@H](C#N)c1ccc(F)c(Oc2ccccc2)c1 | inconclusive: 1.71 nM | –
19 | CC(=O)[O-].CC(=O)[O-].O.O.O.[Pb+2] | inconclusive: 15000 nM | –
20 | CCOP(=O)(OCC)SCSC(C)(C)C | inconclusive: 1.02 nM | –
21 | C=CCN1CC[C@]23c4c5ccc(O)c4O[C@H]2C(=O)CC[C@@]3(O)[C@H]1C5 | inconclusive: 20.8 nM | –
22 | CC1(C)[C@H](C=C(Cl)Cl)[C@H]1C(=O)OCc1c(F)c(F)cc(F)c1F | active: 8940 nM | –
23 | O=C(O)CNCP(=O)(O)O | inconclusive: 15000 nM | –
24 | CCOP(=O)(OCC)SCSCC | inconclusive: 398 nM | –
25 | COP(=O)(OC)SCN1C(=O)c2ccccc2C1=O | inconclusive: 12900 nM | –

Experiment: IUF_NPC4_neurite_area_120hr: Leibniz Research Institute for Environmental Medicine (IUF) 120-hour Neuronal Morphology Assay for Neurite Area (NPC4) (AID 2284305)
How it was run: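 hNPC spheres on PDL/laminin, N2 medium, 37C/5% CO2; dosed day 0, half-medium refresh day 3; fixed 120 h; TUBB3/Hoechst ICC, high-content imaging; neurite area = mean pixels per neuron (nuclei excluded); DMSO baseline, max 0.1%.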

Row | Compound | AC50
26 | CC1(C)C(C=C(Cl)c2ccc(Cl)cc2)C1C(=O)OC(C#N)c1ccc(F)c(Oc2ccccc2)c1 (stereo unspecified) | inconclusive: 12500 nM
27 | CC1(C)[C@@H](C=C(Cl)Cl)[C@@H]1C(=O)O[C@@H](C#N)c1ccc(F)c(Oc2ccccc2)c1 | inconclusive: 1010 nM
28 | C/C(=C/C=C/[C@@H](C)C(=O)O)[C@H]1CN[C@H](C(=O)O)[C@H]1CC(=O)O | inconclusive: 43.1 nM
29 | CC(=O)[O-].CC(=O)[O-].O.O.O.[Pb+2] | inconclusive: 16100 nM
30 | CCOP(=O)(OCC)SCSC(C)(C)C | inconclusive: 49600 nM
31 | CC1(C)[C@H](C=C(Cl)Cl)[C@H]1C(=O)OCc1c(F)c(F)cc(F)c1F | inconclusive: 13.8 nM

Some of the entries above in a different format.
Row	Compound	AC50
27	CC1(C)[C@@H](C=C(Cl)Cl)[C@@H]1C(=O)O[C@@H](C#N)c1ccc(F)c(Oc2ccccc2)c1	inconclusive: 1010 nM
28	C/C(=C/C=C/[C@@H](C)C(=O)O)[C@H]1CN[C@H](C(=O)O)[C@H]1CC(=O)O	inconclusive: 43.1 nM
